The AC50 is the midpoint of the concentration-response curve, whichever way the signal moves.

Some of the results follow. Shown are side measurements of this screen, not its main read-out; they come without a call. Most of these compounds were active or inconclusive in the main read-out, so they are no random draw. The note in brackets gives the kind of curve behind each potency; many fits are weak.

The nature of the assay: qHTS Assay for Lipid Storage Modulators in Drosophila S3 Cells.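 For cell number change: cells counted by Cell Tracker Red CMTPX staining in the red channel.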 The note with it: BODIPY lipid droplet fluorescence, 18-24 h; for cell number change: measured here: cell count max response, cells fed with added oleic acid. In a few lines:
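Drosophila S3 cells got compounds at several concentrations plus oleic acid (400 uM solution). Laser-scanning cytometry with 488 nm excitation read lipid droplets at 500-530 nm and cells at 575-640 nm. Percent activity was relative to 20 uM Triacsin C.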

[1] abbreviates: measured here: lipid fluorescence (Fed channel) AC50, cells fed with added oleic acid.
The mark [2] stands for this setting: measured here: cell number channel AC50, cells fed with added oleic acid.

Take `Cn1nccc1C(=O)N1CCOCC1`: the AC50 under setting [1] was 0.0058 µM [rising, full curve, poor fit]. As to `Cc1ccc(-n2ncc3c(=O)n(Cc4ccccn4)cnc32)cc1C`, the cell number change worked out at 5.29%.

As for `O=c1c(/C=N/OCc2ccc(Cl)cc2Cl)c[nH]n1-c1cccc(Cl)n1`, the cell number change turned out to be 15%. In the case of `O=C(O)C(CCCCN1C(=O)c2ccccc2C1=O)N1C(=O)c2ccccc2C1=O` (stereo not drawn), the AC50 under setting [1] was 0.00517 µM [falling, full curve, poor fit]. Regarding `COc1ccc(OC)c(S(=O)(=O)N2CCC(C(=O)Nc3cccc(C)c3)CC2)c1`, the cell number change was found to be 86.8%. The AC50 under setting [2] is 11.6 µM [rising, partial curve]. The AC50 under setting [1] is 5.8 µM [rising, single point]. As to `COc1ccc(CCNC(=O)COC(=O)c2cnccn2)cc1`, the cell number change is 37.9%. For the same compound, under setting [2], the AC50 was 25.9 µM [rising, single point]. Moreover, the AC50 under setting [1] was 29.1 µM [rising, single point]. Consider `Cc1ccccc1-n1ncc2c1CC(C)(C)CC2NC(=O)CSc1ccncc1` (stereo not drawn), for which the AC50 under setting [1] is 0.517 µM [falling, full curve]. Turning to `CCCN(CC(=O)Nc1ccccc1C)C(=O)c1cccc(S(=O)(=O)N2CCN(c3ccccc3)CC2)c1`, the cell number change was 37.7%. Moreover, under setting [2], the AC50 was 0.58 µM [rising, single point]. Moreover, under setting [1], the half-maximal activity concentration (AC50) was 0.461 µM [rising, single point]. For the compound `COc1ccc(-c2cc(C(=O)N3CCCC3)no2)cc1`, the cell number change came to 23%. For the same compound, the AC50 under setting [1] was 11.6 µM [falling, single point].

`Cc1cccc(N2CCN(C(=O)CC(NC(=O)c3ccccc3)c3ccccc3)CC2C)c1` (stereo not drawn): the cell number change is -4.22%. Besides, the half-maximal activity concentration (AC50) under setting [1] was 0.164 µM [falling, full curve, poor fit]. Take `CCCCC(CC)C(=O)NCCCN1CCN(CCCNC(=O)C(CC)CCCC)CC1` (stereo not drawn): the cell number change worked out at 8.79%. For the same compound, the AC50 under setting [1] is 0.517 µM [falling, full curve, poor fit]. `CC(O)c1cc2c(cc1NC(=O)c1cnn3c1NC(c1ccco1)CC3C(F)(F)F)OCO2` (stereo not drawn): the cell number change was determined as 20.1%. In addition, the AC50 under setting [1] is 1.84 µM [rising, full curve].

Regarding `O=C(CSc1ccccc1)NC1CCCCCCC1`, the cell number change was found to be 30.2%. For the same compound, the AC50 under setting [2] is 7.31 µM [rising, partial curve, poor fit]. For the same compound, under setting [1], the AC50 was 11.6 µM [rising, partial curve, poor fit]. On to `O=C(COC(=O)c1ccccc1)NCCC1=CCCCC1`, for which the cell number change came out at 9.65%. The AC50 under setting [1] was 0.00517 µM [falling, full curve, poor fit].

Turning to `CCN(CC(=O)Nc1c(F)cccc1F)C(=O)c1ccc(=O)n(Cc2ccccc2)n1`, the AC50 under setting [1] was 3.26 µM [rising, full curve]. In the case of `CN(c1ccc(OCC(=O)Nc2nc(-c3ccccc3)cs2)cc1)S(=O)(=O)c1ccc(F)cc1`, the cell number change was 1.27%. The AC50 under setting [1] is 1.64 µM [rising, full curve]. As to `Cc1cc2c(c(=O)n1Cc1cccnc1)C(c1cccs1)C(C#N)=C(N)O2` (stereo not drawn), the AC50 by setting is: under setting [2], 1.3 µM [rising, full curve]; under setting [1], 1.46 µM [rising, full curve]. On to `Cc1ccc(CN(c2ccc(C(=O)N3CCOCC3)cc2)S(C)(=O)=O)cc1`, for which the cell number change was -15.8%.

Take `COc1cccc(NC(=O)CN(C)CC(=O)NC(C)c2ccccc2)c1` (stereo not drawn): the cell number change was -29.9%. For the same compound, the AC50 under setting [1] was 18.4 µM [falling, partial curve, poor fit]. Consider `COc1ccc(/C=N/Nc2ccc(C(=O)O)cc2)c(OC)c1OC`, for which the cell number change is -16.2%. Further, the AC50 under setting [1] is 6.51 µM [rising, single point].

Regarding `Cc1nnc(NCc2n[nH]c(=O)c3ccccc23)c2ccccc12`, the cell number change was -40.7%. For the same compound, the AC50 under setting [2] was 16.4 µM [falling, single point]. Moreover, the AC50 under setting [1] was 0.411 µM [rising, full curve, poor fit].

`COc1ccc(-c2ccnc(-c3ccc(O)cc3)n2)cc1`: the cell number change is -0.34%. In addition, the AC50 under setting [2] was 0.517 µM [falling, single point]. Further, the half-maximal activity concentration (AC50) under setting [1] is 0.517 µM [falling, single point].

Regarding `CN1CCCCc2c1nc1ccccc1c2N` (tested in a mixture with another compound), the cell number change was determined as 33.1%. For the same compound, the AC50 under setting [2] is 11.6 µM [rising, partial curve]. Also, under setting [1], the half-maximal activity concentration (AC50) is 0.651 µM [rising, partial curve]. Turning to `O=C(N/N=C/c1cc([N+](=O)[O-])ccc1O)C12CC3CC(CC(C3)C1)C2`, the cell number change turned out to be 18.2%. Take `CCN(CC)S(=O)(=O)c1ccc(Cl)c(NC(=O)COC(=O)C2CCCCC2)c1`: the cell number change is -5.62%. The AC50 under setting [1] was 2.91 µM [rising, partial curve, poor fit].

Turning to `Cc1nc2ccccc2nc1OCc1ccccc1`, the cell number change was -32.6%. Further, the AC50 under setting [2] is 25.9 µM [falling, single point]. Further, under setting [1], the AC50 is 3.26 µM [rising, partial curve]. On to `CC(=O)Nc1nn(C)c2nc(C)cc(C)c12`, for which the cell number change worked out at 158%. Take `CN(Cc1ccco1)S(=O)(=O)c1ccc(CN2C(=O)c3cccnc3C2=O)s1`: the cell number change came to 6.12%. Moreover, the half-maximal activity concentration (AC50) under setting [1] was 0.82 µM [rising, full curve, poor fit]. In the case of `O=C(CSc1nnc(-c2ccc(Cl)cc2)n1-c1ccccc1)N/N=C/c1ccccc1C(=O)O`, the cell number change came out at 9.85%. Moreover, under setting [1], the AC50 is 6.51 µM [rising, single point]. Take `Fc1ccc(N/N=C/c2ccncc2)c(F)c1`: the cell number change is -8.64%. `Cc1ccc(NC(=O)/C(C#N)=C/c2ccc(C)s2)c(C)c1`: the cell number change is 98.7%. The AC50 under setting [2] is 0.103 µM [rising, full curve]. For the same compound, under setting [1], the AC50 was 0.082 µM [rising, full curve]. Regarding `COc1cccc(N2CC(C(=O)N3CCC4(CC3)CC(=O)c3ccccc3O4)CC2=O)c1` (stereo not drawn), under setting [2], the AC50 is 5.8 µM [rising, partial curve]. On to `Cc1ccc(-n2c(Cc3cccn3C)nnc2SCC(N)=O)cc1`, for which the cell number change amounted to 2.67%. Also, the AC50 under setting [1] is 1.64 µM [falling, full curve, poor fit]. For the compound `O=C(CCCSc1nnc(-c2cccs2)n1CC1CCCO1)c1ccccc1` (stereo not drawn), the cell number change turned out to be 20.4%. For the same compound, the AC50 under setting [2] is 2.06 µM [rising, partial curve, poor fit]. Also, the AC50 under setting [1] is 7.31 µM [rising, partial curve]. Regarding `CC(C)n1c(SCCCc2ccccc2)nc2c1c(=O)[nH]c(=O)n2C`, the cell number change stood at 4.23%. In addition, the AC50 under setting [1] was 8.2 µM [rising, partial curve]. As for `CCOC(=O)NS(=O)(=O)c1ccc(CCNC(=O)c2cc(C)on2)cc1`, the cell number change was -24.7%. Also, under setting [1], the half-maximal activity concentration (AC50) was 0.259 µM [falling, full curve].

In the case of `Cc1cc(-c2ccc(/C=N/n3cnnc3)o2)c([N+](=O)[O-])cc1C`, the cell number change was -9.76%. In addition, the AC50 under setting [1] was 23.1 µM [falling, single point]. For `CN=C1C([N+](=O)[O-])=CC=C2C1=NC1(CCCCC1)N2O`, the cell number change was -4%. For `COc1ccccc1NC(=S)N1CCN(Cc2ccccc2)CC1`, the cell number change worked out at 24.2%. For the same compound, the AC50 under setting [1] is 10.3 µM [rising, partial curve, poor fit]. For `Cc1cc2cc(CNC(=S)Nc3ccc(OC(F)F)cc3)ccc2n1C`, the cell number change was 0.961%. Moreover, the half-maximal activity concentration (AC50) under setting [1] is 29.1 µM [falling, single point]. As to `CCOC(=O)c1ccc(NC(=O)CN2CCN(C(=O)c3ccco3)CC2)cc1`, the cell number change was 5%. Also, under setting [1], the AC50 is 0.0731 µM [rising, full curve, poor fit]. As for `Cn1cccc1P(=O)(c1cccn1C)c1cccn1C`, the AC50 under setting [1] was 5.8 µM [falling, partial curve]. In the case of `COc1ccccc1CNS(=O)(=O)c1ccc(-c2cnc(C3CC3)o2)cc1`, the cell number change is -10%. Moreover, the AC50 under setting [2] was 1.03 µM [rising, partial curve, poor fit]. `Cc1ccc(Cn2ncc3c(N4CCN(Cc5ccc(Cl)cc5)CC4)ncnc32)cc1`: the cell number change turned out to be 48.2%. The AC50 under setting [2] is 25.9 µM [rising, single point].

In the case of `Cc1ccc2c(c1)C(C)(C)[C@]1(C)NC(=O)CCN21`, the cell number change was -90.1%. Also, under setting [2], the AC50 is 29.1 µM [falling, single point]. In addition, under setting [1], the AC50 is 5.8 µM [falling, full curve]. Consider `Cc1ccc(C)c(/C=N/NC(=S)NCCc2ccccc2)c1`, for which the AC50 under setting [1] is 0.461 µM [rising, partial curve, poor fit]. For the compound `COc1ccc(CNS(=O)(=O)NCc2ccc(C)cc2)cc1OC`, the cell number change came out at 8.96%. For the same compound, the AC50 under setting [2] was 0.651 µM [rising, single point]. Also, the concentration at half-maximal activity (AC50) under setting [1] was 0.651 µM [rising, full curve, poor fit]. Take `COCCNC(=O)c1c[nH]c2ccc(S(=O)(=O)Nc3ccc(F)cc3F)cc2c1=O`: the cell number change came to 15.3%.

Turning to `O=[N+]([O-])c1cc(-c2ccc(/C=N/c3nc4ccccn4c3-c3ccco3)o2)ccc1Cl`, the cell number change came to 25.2%. Still for that read-out and setting: the same measure for `COc1ccc(NC(=O)C2CCN(c3nnnn3-c3ccccc3)CC2)cc1`: -19.3%; for `OCC[C@H]1C[C@H](O)[C@@H](O)[C@]2(Cc3ccccc3CO2)O1`: 4.92%. Regarding `O=C1CCC/C(=N\NC(=O)c2ccc(COc3cccc4cccnc34)cc2)C1`, the cell number change was found to be 11.9%. Moreover, the AC50 under setting [1] was 29.1 µM [rising, single point].

On to `Cc1ccc(OCC(=O)N2CCN(C(=O)c3cccs3)CC2)cc1`, for which the cell number change came to 9.46%. Also, under setting [1], the AC50 was 29.1 µM [rising, single point]. As for `Cc1ccc2nsnc2c1S(=O)(=O)N(Cc1ccco1)Cc1cc2ccc(C)c(C)c2[nH]c1=O`, the cell number change stood at 13.6%. Moreover, under setting [1], the AC50 was 29.1 µM [rising, single point]. Take `CCOC(=O)CN(C)Cc1cn(C)nc1-c1ccc(Oc2ccccc2)cc1`: the cell number change was -25.1%. In the case of `C=CCn1c(N2CCOCC2)nc2c1c(=O)[nH]c(=O)n2C`, the cell number change is -60.5%. In addition, the AC50 under setting [2] is 32.6 µM [falling, single point]. Moreover, the AC50 under setting [1] was 1.64 µM [falling, partial curve]. For the compound `COc1ccc(Cc2nc(-c3ccc(NC(=O)c4cccnc4)cc3)no2)cc1`, the AC50 is 3.66 µM [rising, single point] under setting [2] and 2.31 µM [rising, partial curve] under setting [1]. As for `CCc1ccccc1NC(=O)CCOc1ccccc1`, the cell number change was found to be 24.7%. Moreover, the AC50 under setting [1] is 0.92 µM [rising, partial curve].

Turning to `CCc1ccccc1NC(=O)Cn1c(=O)n(-c2ccc(CC(=O)NCC3CCCO3)cc2)c(=O)c2ccccc21` (stereo not drawn), the cell number change is -16.7%. The AC50 under setting [2] is 0.58 µM [rising, single point]. The AC50 under setting [1] was 0.651 µM [rising, partial curve, poor fit].

The values are drawn from PubChem BioAssay AID2685 (National Center for Advancing Translational Sciences (NCATS), 2010).
